# According to the supplement of paper PMC8728848:
# This is one part of the list.
# B1: GST Gap3 (Streptococcus parasanguinis) (protein)
# chain: MTKQLISEIYWNEIRKGENYLYGSQIKFQEDLVNFYNPQLASGKPIVTFKSRTNYQGDRHSPDLPILIQGNRYLLEYQIDAVPANSFFLQLDFFNRQAEQIESIVLRNSGESFIFPKDTFTYTLTLMSAGCQSVTYQKFMIYDINDEEKKNHIVENRYLRELLPKDLDLVKNLIEYI
# How the values were obtained:
# Assay in all cases: glycan array binding signal (z-score within array); higher = stronger binding
# Settings in all cases: glycan notation: IUPAC condensed, linker removed
# [1] = target: Gal(b1-3)GalNAc(a1-3)[Fuc(a1-2)]Gal(b1-4)GlcNAc
# Outline: (§1)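 Negative Z-scores can be read as non-binding. The Z-score is calculated within each array and then averaged across arrays of one protein sequence at different concentrations or buffers and across linkers. Arrays, 3228 in all, were curated from the Consortium for Functional Glycomics database and kept only where the protein sequence was available.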
# Gal(b1-3)GalNAc(b1-3)Gal = target: Gal(b1-3)GalNAc(b1-3)Gal
# Outline: as §1
# [2] = target: Gal(b1-3)GalNAc(b1-3)Gal(a1-4)Gal(b1-4)Glc
# Outline: as §1
# [3] = target: Gal(b1-3)GalNAc(b1-4)Gal(b1-4)Glc
# Outline: as §1
# [4] = target: Gal(b1-3)GalNAc(b1-4)[Neu5Ac(a2-3)]Gal(b1-4)Glc
# Outline: as §1
# Gal(b1-3)GlcNAc = target: Gal(b1-3)GlcNAc
# Outline: as §1
# [5] = target: Gal(b1-3)GlcNAc(a1-3)Gal(b1-4)GlcNAc
# Outline: as §1
# [6] = target: Gal(b1-3)GlcNAc(a1-6)Gal(b1-4)GlcNAc
# Outline: as §1
# Gal(b1-3)GlcNAc(b1-2)Man = target: Gal(b1-3)GlcNAc(b1-2)Man
# Outline: as §1
# [7] = target: Gal(b1-3)GlcNAc(b1-2)Man(a1-3)[Gal(b1-3)GlcNAc(b1-2)Man(a1-6)]Man(b1-4)GlcNAc(b1-4)GlcNAc
# Outline: as §1
# [8] = target: Gal(b1-3)GlcNAc(b1-2)Man(a1-3)[Gal(b1-3)GlcNAc(b1-2)Man(a1-6)]Man(b1-4)GlcNAc(b1-4)[Fuc(a1-6)]GlcNAc
# Outline: as §1
# [9] = target: Gal(b1-3)GlcNAc(b1-2)Man(a1-3)[GlcNAc(b1-4)][Gal(b1-3)GlcNAc(b1-2)Man(a1-6)]Man(b1-4)GlcNAc(b1-4)GlcNAc
# Outline: as §1
# [10] = target: Gal(b1-3)GlcNAc(b1-2)[Gal(b1-3)GlcNAc(b1-6)]Man(a1-6)[Gal(b1-3)GlcNAc(b1-2)Man(a1-3)]Man(b1-4)GlcNAc(b1-4)GlcNAc
# Outline: as §1
# [11] = target: Gal(b1-3)GlcNAc(b1-3)Gal(b1-3)GlcNAc
# Outline: as §1
# [12] = target: Gal(b1-3)GlcNAc(b1-3)Gal(b1-4)Glc
# Outline: as §1
# [13] = target: Gal(b1-3)GlcNAc(b1-3)Gal(b1-4)GlcNAc
# Outline: as §1
# [14] = target: Gal(b1-3)GlcNAc(b1-3)Gal(b1-4)GlcNAc(b1-2)Man(a1-3)[Gal(b1-3)GlcNAc(b1-3)Gal(b1-4)GlcNAc(b1-2)Man(a1-6)]Man(b1-4)GlcNAc(b1-4)GlcNAc
# Outline: as §1
# [15] = target: Gal(b1-3)GlcNAc(b1-3)Gal(b1-4)GlcNAc(b1-2)[Gal(b1-3)GlcNAc(b1-3)Gal(b1-4)GlcNAc(b1-6)]Man(a1-6)[Gal(b1-3)GlcNAc(b1-3)Gal(b1-4)GlcNAc(b1-2)Man(a1-3)]Man(b1-4)GlcNAc(b1-4)[Fuc(a1-6)]GlcNAc
# Outline: as §1
# [16] = target: Gal(b1-3)GlcNAc(b1-3)Gal(b1-4)GlcNAc(b1-3)Gal(b1-4)GlcNAc(b1-2)[Gal(b1-3)GlcNAc(b1-3)Gal(b1-4)GlcNAc(b1-3)Gal(b1-4)GlcNAc(b1-6)]Man(a1-6)[Gal(b1-3)GlcNAc(b1-3)Gal(b1-4)GlcNAc(b1-3)Gal(b1-4)GlcNAc(b1-2)Man(a1-3)]Man(b1-4)GlcNAc(b1-4)[Fuc(a1-6)]GlcNAc
# Outline: as §1
# [17] = target: Gal(b1-3)GlcNAc(b1-3)Gal(b1-4)GlcNAc(b1-6)[Gal(b1-3)GlcNAc(b1-3)]Gal(b1-4)Glc
# Outline: as §1
# [18] = target: Gal(b1-3)GlcNAc(b1-3)Gal(b1-4)[Fuc(a1-3)]GlcNAc
# Outline: as §1
# [19] = target: Gal(b1-3)GlcNAc(b1-3)Gal(b1-4)[Fuc(a1-3)]GlcNAc(b1-6)[Gal(b1-3)GlcNAc(b1-3)]Gal(b1-4)Glc
# Outline: as §1
# [20] = target: Gal(b1-3)GlcNAc(b1-3)GalNAc
# Outline: as §1
# [21] = target: Gal(b1-3)GlcNAc(b1-6)Gal(b1-4)GlcNAc
# Outline: as §1
# [22] = target: Gal(b1-3)GlcNAc(b1-6)GalNAc
# Outline: as §1
# [23] = target: Gal(b1-3)GlcNAc(b1-6)[Gal(b1-3)]GalNAc
# Outline: as §1
# Gal(b1-3)GlcNAc6S = target: Gal(b1-3)GlcNAc6S
# Outline: as §1
# [24] = target: Gal(b1-3)[Fuc(a1-4)]GlcNAc
# Outline: as §1
# [25] = target: Gal(b1-3)[Fuc(a1-4)]GlcNAc(b1-2)Man
# Outline: as §1
# [26] = target: Gal(b1-3)[Fuc(a1-4)]GlcNAc(b1-2)Man(a1-3)[Gal(b1-3)[Fuc(a1-4)]GlcNAc(b1-2)Man(a1-6)]Man(b1-4)GlcNAc(b1-4)GlcNAc
# Outline: as §1
# [27] = target: Gal(b1-3)[Fuc(a1-4)]GlcNAc(b1-2)Man(a1-3)[Gal(b1-3)[Fuc(a1-4)]GlcNAc(b1-2)Man(a1-6)]Man(b1-4)GlcNAc(b1-4)[Fuc(a1-6)]GlcNAc
# Outline: as §1
# [28] = target: Gal(b1-3)[Fuc(a1-4)]GlcNAc(b1-3)Gal(b1-3)[Fuc(a1-4)]GlcNAc
# Outline: as §1
# [29] = target: Gal(b1-3)[Fuc(a1-4)]GlcNAc(b1-3)Gal(b1-4)GlcNAc
# Outline: as §1
# [30] = target: Gal(b1-3)[Fuc(a1-4)]GlcNAc(b1-3)Gal(b1-4)[Fuc(a1-3)]GlcNAc
# Outline: as §1
# [31] = target: Gal(b1-3)[Fuc(a1-4)]GlcNAc(b1-6)GalNAc
# Outline: as §1
# [32] = target: Gal(b1-3)[GlcNAc(b1-6)]GalNAc
# Outline: as §1
# [33] = target: Gal(b1-3)[Neu5Ac(a2-6)]GalNAc
# Outline: as §1
# [34] = target: Gal(b1-3)[Neu5Ac(a2-6)]GlcNAc(b1-4)Gal(b1-4)Glc
# Outline: as §1
# [35] = target: Gal(b1-3)[Neu5Ac(a2-6)]GlcNAc(b1-6)Gal(b1-4)Glc
# Outline: as §1
# [36] = target: Gal(b1-3)[Neu5Ac(b2-6)]GalNAc
# Outline: as §1
# Gal(b1-4)Gal = target: Gal(b1-4)Gal
# Outline: as §1
# [37] = target: Gal(b1-4)GalNAc(a1-3)[Fuc(a1-2)]Gal(b1-4)GlcNAc
# Outline: as §1
# [38] = target: Gal(b1-4)GalNAc(b1-3)[Fuc(a1-2)]Gal(b1-4)GlcNAc
# Outline: as §1
# Gal(b1-4)Glc = target: Gal(b1-4)Glc
# Outline: as §1
# Gal(b1-4)Glc6S = target: Gal(b1-4)Glc6S
# Outline: as §1
binder,measurement,setting,value
B1,glycan array binding signal (z-score),[1],-0.52
same,glycan array binding signal (z-score),Gal(b1-3)GalNAc(b1-3)Gal,-0.598
same,glycan array binding signal (z-score),[2],-0.402
same,glycan array binding signal (z-score),[3],-0.084
same,glycan array binding signal (z-score),[4],0.142
same,glycan array binding signal (z-score),Gal(b1-3)GlcNAc,-0.164
same,glycan array binding signal (z-score),[5],1.03
same,glycan array binding signal (z-score),[6],-0.657
same,glycan array binding signal (z-score),Gal(b1-3)GlcNAc(b1-2)Man,-0.116
same,glycan array binding signal (z-score),[7],1.86
same,glycan array binding signal (z-score),[8],-0.196
same,glycan array binding signal (z-score),[9],1.04
same,glycan array binding signal (z-score),[10],0.783
same,glycan array binding signal (z-score),[11],-0.355
same,glycan array binding signal (z-score),[12],-0.072
same,glycan array binding signal (z-score),[13],-0.056
same,glycan array binding signal (z-score),[14],0.821
same,glycan array binding signal (z-score),[15],1.04
same,glycan array binding signal (z-score),[16],4.03
same,glycan array binding signal (z-score),[17],0.052
same,glycan array binding signal (z-score),[18],0.626
same,glycan array binding signal (z-score),[19],0.099
same,glycan array binding signal (z-score),[20],-0.691
same,glycan array binding signal (z-score),[21],0.897
same,glycan array binding signal (z-score),[22],0.002
same,glycan array binding signal (z-score),[23],0.84
same,glycan array binding signal (z-score),Gal(b1-3)GlcNAc6S,0.203
same,glycan array binding signal (z-score),[24],-0.27
same,glycan array binding signal (z-score),[25],0.489
same,glycan array binding signal (z-score),[26],3.61
same,glycan array binding signal (z-score),[27],0.928
same,glycan array binding signal (z-score),[28],-0.009
same,glycan array binding signal (z-score),[29],-0.289
same,glycan array binding signal (z-score),[30],-0.2
same,glycan array binding signal (z-score),[31],0.456
same,glycan array binding signal (z-score),[32],0.03
same,glycan array binding signal (z-score),[33],0.684
same,glycan array binding signal (z-score),[34],0.604
same,glycan array binding signal (z-score),[35],-0.162
same,glycan array binding signal (z-score),[36],0.007
same,glycan array binding signal (z-score),Gal(b1-4)Gal,-0.247
same,glycan array binding signal (z-score),[37],0.503
same,glycan array binding signal (z-score),[38],0.316
same,glycan array binding signal (z-score),Gal(b1-4)Glc,-0.306
same,glycan array binding signal (z-score),Gal(b1-4)Glc6S,0.242

# 9 entries from above in another layout.
binder | measurement | setting | value
B1 | glycan array binding signal (z-score) | [2] | -0.402
same | glycan array binding signal (z-score) | [5] | 1.03
same | glycan array binding signal (z-score) | Gal(b1-3)GlcNAc(b1-2)Man | -0.116
same | glycan array binding signal (z-score) | [11] | -0.355
same | glycan array binding signal (z-score) | [12] | -0.072
same | glycan array binding signal (z-score) | [26] | 3.61
same | glycan array binding signal (z-score) | [30] | -0.2
same | glycan array binding signal (z-score) | [31] | 0.456
same | glycan array binding signal (z-score) | [38] | 0.316
